Test results as given in PubChem BioAssay AID493014 (National Center for Advancing Translational Sciences (NCATS), 2011).
In all, about 340,000 compounds went through this assay and about 170 (0.05%) were called active. This list was built around the results that the source calls inconclusive (neither active nor inactive); the mix of calls is not that of the screen. The call rests on the fitted dose curve; in most records, active means well fitted inhibition curve with a large enough effect in the signal ratio, with a control signal flat (not every such curve was filed as active); inconclusive means small, poorly fitted or top-dose-only effect, or effect the other way, or a change in a side signal; inactive means flat fitted curve, though single readings scatter; the % refers to the signal ratio. Potencies beside an inconclusive call are fits to weak or partial responses and may not hold up.

assay: qHTS Assay to Find Inhibitors of Chronic Active B-Cell Receptor Signaling; details: ABC-DLBCL IkBa-CBG/CBR reporter, luminescence ratio (green luciferase fused to IkBa over red control in TMD8 lymphoma cells), 4 h; activity change, negative = inhibition: at 46.1 µM (top of the series) unless noted;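 on activity change, negative = inhibition: plate controls were basal doxycycline-induced cells for no effect and cells given 10 µM MG132 for full effect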
Procedure, shortened: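 Doxycycline induced both beetle luciferases in TMD8 lymphoma cells; IKK-driven degradation limits the IkappaBalpha-fused green signal, while red luminescence normalises for cell number and nonspecific effects. Compounds tested up to 46 uM, 4 hrs.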
Potency means the concentration at half of the fitted maximal effect.

SMILES | activity change, negative = inhibition | Potency
N#Cc1c(-c2ccccc2)cc2nc3ccccc3n2c1N | inconclusive: -16.1% | –
CN(C)C(=O)c1ccccc1-c1ccccc1 | inconclusive: 0.793% | –
C=CCNC(=O)C(=O)NCC(c1ccc2c(c1)OCO2)N1CCN(c2ccc(F)cc2)CC1 (configuration not stated) | inconclusive: -1.64% | –
Cc1ccc(-n2cnc3sc(C)c(C)c3c2=O)cc1 | inconclusive: 2.5% | –
CCOc1ccc(C(C)NC(=O)Cc2ccccc2F)cc1OCC (configuration not stated) | inactive: 8.72% | –
Cn1c(CCNC(=O)c2ccco2)nc2cc(NC(=O)c3ccco3)ccc21 | – | inconclusive: 16.4 µM [falling, partial curve]
C[C@H](CO)N1C[C@H](C)[C@@H](CN(C)Cc2ccncc2)Oc2c(cccc2N(C)C)C1=O | inconclusive: -0.602% | –
COCc1cc(Sc2ccc(OC)cc2)nc(-c2ccccc2)n1 | inconclusive: 1.33% | –
CSc1ccc(/C=C/C(=O)c2ccc(NC(=O)Cc3ccccc3)cc2)cc1 | – | inconclusive: 22.4 µM [falling, partial curve]
CC(C)CNc1c(N)c(=O)oc2ccccc12 | – | inconclusive: 11.6 µM [falling, partial curve]
Cc1cc(C(=O)Nc2nc3c(s2)CCCC3)no1 | – | inconclusive: 3.26 µM [falling, single point]
Cc1cccc(NC(=O)N2CCC(NC(=O)C3CCCCC3)CC2)c1 | inconclusive: -17.1% | –
Cc1sc2nc(CSCC(=O)N(CCC#N)c3ccccc3)[nH]c(=O)c2c1C | – | inconclusive: 35.5 µM [rising, partial curve, poor fit]
O=C1C=C(c2ccc(OC(F)(F)F)cc2)C[C@@H](c2ccc(F)cc2)C1 | inconclusive: 6.94% | –
CCN(CCCNC(=O)c1cc2c(-c3cccc(OC)c3)nn(C)c2s1)Cc1ccccc1 | inconclusive: -11.6% | –
Cn1c(N)c(S(=O)(=O)NCc2ccccc2Cl)c(=O)n(C)c1=O | – | inconclusive: 7.08 µM [falling, partial curve, poor fit]
CC(C)Oc1nc(-c2ccc(Cl)cc2)nc2ccccc12 | inconclusive: 4.25% | –
Cc1cnc(NC(=O)Cc2ccc(C)c(C)c2)s1 | inconclusive: 5.25% | –
COc1ccc(-c2noc(COC(=O)c3ccco3)n2)cc1OC | inactive: 3.65% | –
CCC(=O)NC(=S)Nc1cccc(C(C)=O)c1 | inactive: 5.08% | –
CCCCCCCSc1nnc(N)s1 | inconclusive: 13.1% | –

SMILES | activity change, negative = inhibition | Potency
Cc1ccc(N(C(C)C(=O)Nc2cc(Cl)ccc2Oc2ccccc2)S(C)(=O)=O)cc1 (configuration not stated) | inconclusive: -0.784% | –
COc1cc(CN(C)CCc2ccccc2)ccc1OCc1ccccc1 | inactive: -8.75% | –
Cc1cc(C(=O)O)ccc1-c1ccc(/C=C2\NC(=O)N(Cc3ccccc3Cl)C2=O)o1 | inactive: 4.01% | –
Cc1cc(C)c2sc(N(CCCN(C)C)C(=O)c3ccc(S(=O)(=O)N(C)Cc4ccccc4)cc3)nc2c1 | inactive: -2.1% | –
COC(=O)NCc1cc2cc(Cl)ccc2[nH]1 | inactive: 9.57% | –
O=C(CNS(=O)(=O)c1ccc(Br)cc1)Nc1ccc2c(c1)OCCO2 | inactive: -1.24% | –
Cn1cccc1-c1cc(C(=O)N/N=C/C=C/c2ccccc2)[nH]n1 | inactive: -14.7% | –
CCCC(=O)Nc1nc2nc(-c3ccccc3)cc(=O)n2[nH]1 | – | inconclusive: 23.1 µM [falling, single point]
CC1CCc2nc(NC(=O)CN3CCN(c4ccccc4)CC3)sc2C1 (configuration not stated) | inactive: 3.68% | –
Nc1nc(SCC(=O)Nc2ccc(Oc3ccccc3)cc2)n[nH]1 | inconclusive: 0.173% | –
Cn1cccc1Cc1nnc(SCC(=O)NC2CCCC2)n1-c1ccc(F)cc1 | inconclusive: -6.07% | –
COc1ccc(Cl)cc1NC(=O)CSc1nnc(Cc2cccn2C)n1-c1ccc(F)cc1 | inconclusive: -6.79% | –
O=C(O)/C=C/c1coc2ccc(F)cc2c1=O | inconclusive: 3.02% | –
COc1ccc([C@H]2CC(=O)C=C(c3ccc(-c4ccccc4)c(F)c3)C2)cc1 | inconclusive: -0.333% | –
COc1ccc2oc(=O)c(-c3nnc(N)s3)cc2c1 | inactive: 6.19% | –
O=c1cc(C(F)(F)F)nc(SCc2cccc3ccccc23)[nH]1 | inconclusive: 0.41% | –
Cc1ccc(OCC(=O)Nc2ccc(O)c(C(=O)O)c2)cc1C | – | inconclusive: 29.1 µM [falling, single point]
O=C(Nc1nnc(S(=O)(=O)N2CCCCCC2)s1)c1ccc(Cl)cc1 | inconclusive: 14.9% | –
CC(C)N(C)C1CCN(C(=O)Nc2ccc(Cl)c(Cl)c2)CC1 | inconclusive: -14.9% | –
COc1ccc(CNC(=O)CN(C)S(=O)(=O)c2ccc3c(c2)c(=O)n(C)c(=O)n3C)cc1 | inconclusive: -0.0051% | –
Cc1ccc(C2=NN=C(NC(=O)CSc3nc(C)cc(C)n3)SC2)cc1 | – | inconclusive: 20.6 µM [falling, partial curve, poor fit]

Looked up above.
`COc1ccc(CNC(=O)CN(C)S(=O)(=O)c2ccc3c(c2)c(=O)n(C)c(=O)n3C)cc1` – activity change, negative = inhibition: inconclusive: -0.0051%
`Cc1cc(C)c2sc(N(CCCN(C)C)C(=O)c3ccc(S(=O)(=O)N(C)Cc4ccccc4)cc3)nc2c1` – activity change, negative = inhibition: inactive: -2.1%
`O=C(CNS(=O)(=O)c1ccc(Br)cc1)Nc1ccc2c(c1)OCCO2` – activity change, negative = inhibition: inactive: -1.24%

(more compounds)

SMILES | activity change, negative = inhibition | Potency
O=C(OC(C(=O)NCC1CCCO1)c1ccccc1F)c1ccco1 (configuration not stated) | inconclusive: 0.0584% | –
O=C(N=Nc1c(O)n(Cc2ccccc2)c2ccccc12)c1cc2ccccc2cc1O | – | inconclusive: 2.06 µM [falling, partial curve]
CC/C(=N\NC(N)=O)c1ccc(OC(F)F)cc1 | inconclusive: 4.47% | –
COc1cc(OC)c(NC(=O)Cc2cccs2)cc1Cl | inconclusive: -1.23% | –
CC(NC(=O)c1cc2cc(Br)ccc2oc1=N)c1ccccc1 (configuration not stated) | inactive: 1.57% | –
COc1ccc(S(=O)(=O)N2CCCC2CNC(=O)C(=O)Nc2cccc(F)c2)cc1 (configuration not stated) | inactive: -1.77% | –
CCOC(=O)N1CCN(C(=O)CN(Cc2ccc(Cl)cc2)S(C)(=O)=O)CC1 | inconclusive: -3.37% | –
COC(=O)C(NNc1ccccc1)(NC(=O)c1cccc(F)c1)C(F)(F)F (configuration not stated) | – | inconclusive: 2.31 µM [rising, full curve, poor fit]
CCCCNc1cc(NC(C)=O)cc2cc(OC)c(OC)cc12 | inactive: -9.93% | –
Cc1cc(N2CCCCC2)nc2ccc(NC(=O)CCC(=O)NCCC(C)C)cc12 | inactive: 5% | –
C/C=C(\C)c1nnc(NC(=O)c2ccco2)s1 | inconclusive: -17.9% | –
COc1ccc(Nc2ncnc3ccc(C)cc23)cc1 | inconclusive: -19.4% | –
CCN(CC)C(=O)C1CCCN(c2ccc([N+](=O)[O-])cc2/C=N/NC(=O)c2cccc(O)c2)C1 (configuration not stated) | inconclusive: -24.3% | –
CC1(C)Cc2ccccc2-c2nc(NN)[nH]c(=O)c21 | inconclusive: 14.3% | –
Cc1cccc(SCC(=O)Nc2ccccc2[N+](=O)[O-])c1 | inconclusive: -2.1% | –
COCCNCC(=O)Nc1ccc(OC(F)(F)F)cc1 | inconclusive: 7.37% | –
COCC(=O)Nc1cc(C(=O)Nc2ccccc2C)ccc1Cl | – | inconclusive: 15.8 µM [falling, partial curve, poor fit]
CCCS(=O)(=O)N1CCCC(C(=O)N2CCCCC2)C1 (configuration not stated) | inconclusive: 10.1% | –
CSc1cccc(NC(=S)N(CCC(C)C)C2CCN(C(C)=O)CC2)c1 | – | inconclusive: 0.1 µM [falling, full curve, poor fit]
Cc1cc(Nc2c(C)cccc2C)n2nc(C)nc2n1 | inconclusive: 17.5% | –
COc1ccc(CC(=O)NNC(=O)c2nn(Cc3ccccc3)c(=O)c3ccccc23)cc1OC | – | inconclusive: 15.8 µM [rising, partial curve, poor fit]

SMILES | activity change, negative = inhibition | Potency
Cc1cccc(Cc2nnc(CCC(=O)NCc3cn4ccccc4n3)o2)c1 | inconclusive: 2.72% | –
O=C(Cn1cnc2ccccc21)OCC(=O)N1CCCc2ccccc21 | inactive: 3.67% | –
NNC(=O)c1cc2c(ccc3ccccc32)o1 | inconclusive: -12.4% | –
CC(NC(=O)c1cn(C)c2ccc(S(=O)(=O)N3CCCC3)cc2c1=O)c1ccccc1 (configuration not stated) | inactive: -0.329% | –
COc1cc(OC)cc(C(=O)Nc2ccc3c(c2)n(C)c(=O)n3C)c1 | – | inconclusive: 12.6 µM [cytotoxic, partial curve, poor fit]
ClCc1c2ccccc2cc2ccccc12 | inconclusive: 1.55% | –
O=C(Oc1cccc2cccnc12)c1ccc2c(c1)OCCO2 | – | inconclusive: 3.66 µM [cytotoxic, full curve]
Cc1noc(C)c1CSc1nnc(-c2ccccc2)n1Cc1ccco1 | inconclusive: -1.33% | –
C[C@@H](C(=O)Nc1nc2ccc(F)cc2s1)N1C(=O)C2CC=CCC2C1=O (some centres not stated) | inconclusive: -9.83% | –
O=C(Nc1nnc(-c2ccc(F)cc2)o1)c1ccco1 | – | inconclusive: 35.5 µM [rising, single point]
O=C(Cc1ccccc1)Nc1cccc(N2C(=O)C=CC2=O)c1 | inconclusive: 18.4% | –
CCCn1c(=O)c2sccc2n2c(CCCC(=O)NC3CCN(Cc4ccccc4)CC3)nnc12 | inconclusive: 1.03% | –
CC1CCCCN1C(=O)CSc1nc(C2CC2)nc2c1cnn2-c1ccccc1 (configuration not stated) | – | inconclusive: 0.366 µM [rising, full curve]
CCOC(=O)C(C(=O)OCC)C(Nc1cccc(Br)c1)c1ccccc1 (configuration not stated) | – | inconclusive: 22.4 µM [falling, partial curve, poor fit]
Cc1cc(C)n(-c2ccc(C(=O)Nc3ccc4c(c3)OCO4)cc2)n1 | – | inconclusive: 2.31 µM [rising, partial curve, poor fit]
CC(=O)NC(CC(=O)O)c1ccc(F)cc1 (configuration not stated) | – | inconclusive: 3.55 µM [falling, full curve]
Cc1cc(C)n(-c2nc3c(c(=O)[nH]c(=O)n3C)n2C(C)C)n1 | inconclusive: -8.4% | –
COC(=O)c1sccc1NC(=O)CSc1ccccc1NS(=O)(=O)c1ccc(F)cc1 | inconclusive: 4.38% | –
O=C(/C=C/c1cccc([N+](=O)[O-])c1)Nc1cccc(NC(=O)c2cccs2)c1 | inconclusive: -6.73% | –
